From PubChem BioAssay AID330 (DTP/NCI, 2004)
The list shows only some results of the screen, not a fair sample: it gathers tests that were run many times, whatever their T/C, doses with no T/C, and many T/C values between a quarter and a half above the control. Further doses and runs are listed elsewhere. T/C: endpoint of the treated group in % of that of the vehicle group. Some doses have a count of surviving animals in place of a T/C: the source files T/C as zero there, which appears to mark a toxic dose or a test without result, not a measured value. Some doses without a T/C left all or most animals alive at the check, yet need not have been tolerated: the source hardly ever lists a survival T/C far under the control, and the zero likely stands for such cases as well. Survivors were counted at the toxicity check, usually on the fifth day, unless a day is given; later deaths do not show. Schedule codes are those of the source, taken here to give the interval after Q, in days (D) or hours (H), and the number of doses after X. Some doses were run more than once; the results are listed from low to high. Some molecules as drawn cover several salts, stereoisomers or complexes of the source; a dose is that of the sample tested. For survival time, this PubChem deposit counts one and a half times the control or more as active, and values a quarter to a half above the control carry no call in these data; other NCI protocols may use other cut-offs.

Test system: P388 leukemia ip, CD2F1 mice, survival T/C
Assay: NCI In Vivo Anticancer Drug Screen. Data for tumor model P388 Leukemia (intraperitoneal) in CD2F1 (CDF1) mice
Conditions: T/C endpoint: median survival time, higher T/C = longer survival
[1] = dose: 200.0 mg/kg/injection, schedule: Q01DX009 (ip), vehicle: saline

For `CCCCN=NN(C)CCCC`, the T/C (dose: 50.0 mg/kg/injection, schedule: Q01DX005 (ip), vehicle: saline with Tween-80) was 134 and 144 % of control, the survivor count (dose: 100.0 mg/kg/injection, schedule: Q01DX005 (ip), vehicle: saline with Tween-80) was 4 of 5 and 5 of 6 and the survivor count (dose: 200.0 mg/kg/injection, schedule: Q01DX005 (ip), vehicle: saline with Tween-80) was 2 of 6.

For `NC(N)=NC(N)=Nc1c(F)c(F)c(F)c(F)c1F`, the T/C (dose: 12.5 mg/kg/injection, schedule: Q01DX009 (ip), vehicle: saline with Tween-80) was 125 % of control, the survivor count (dose: 100.0 mg/kg/injection, schedule: Q01DX009 (ip), vehicle: saline with Tween-80) was 0 of 6 and the survivor count (dose: 200.0 mg/kg/injection, schedule: Q01DX009 (ip), vehicle: saline with Tween-80) was 0 of 6.

`CC(=O)SCN1CCCCC1` was tested, and the T/C (dose: 50.0 mg/kg/injection, schedule: Q01DX009 (ip), vehicle: saline) was 132 % of control, the T/C (dose: 100.0 mg/kg/injection, schedule: Q01DX009 (ip), vehicle: saline) was 127 and 137 % of control and the survivor count [1] was 2 of 6. For the same compound, the survivor count (dose: 200.0 mg/kg/injection, schedule: Q04DX002 (ip), vehicle: saline) was 2 of 6 and the survivor count (dose: 400.0 mg/kg/injection, schedule: Q04DX002 (ip), vehicle: saline) was 0 of 6.

In the case of `CCCCCCCCC(C)C(=O)N1CCCC1C(=O)N1C(CC(=O)CC)CC(C)CC1C(=O)NC(C)C(=O)NC(C)(C)C(=O)NC(C)(C)C(=O)NC(C(=O)NC(C)C(=O)NC(C)(C)C(=O)NC(C)(C)C(=O)NC(C)CN(C)CCO)C(C)CC` (stereo unspecified), the T/C (dose: 0.15 mg/kg/injection, schedule: Q01DX009 (ip), vehicle: Klucel (hydroxypropylcellulose) (HPC)) is reported as 126 % of control, the T/C (dose: 0.31 mg/kg/injection, schedule: Q01DX009 (ip), vehicle: Klucel (hydroxypropylcellulose) (HPC)) is reported as 128 % of control and the T/C (dose: 0.62 mg/kg/injection, schedule: Q01DX009 (ip), vehicle: Klucel (hydroxypropylcellulose) (HPC)) is reported as 142 % of control. The T/C (dose: 1.25 mg/kg/injection, schedule: Q01DX009 (ip), vehicle: Klucel (hydroxypropylcellulose) (HPC)) was 125 % of control and the survivor count (dose: 5.0 mg/kg/injection, schedule: Q01DX009 (ip), vehicle: Klucel (hydroxypropylcellulose) (HPC)) was 0 of 6.

`CCCC#CC#N` was tested, and the T/C (dose: 25.0 mg/kg/injection, schedule: Q01DX009 (ip), vehicle: suspension in saline) was 126 % of control, the T/C (dose: 50.0 mg/kg/injection, schedule: Q01DX009 (ip), vehicle: suspension in saline) was 142 % of control and the T/C (dose: 100.0 mg/kg/injection, schedule: Q01DX009 (ip), vehicle: olive oil, sesame oil, peanut oil) was 135 % of control. For the same compound, the T/C (dose: 100.0 mg/kg/injection, schedule: Q01DX009 (ip), vehicle: suspension in saline) was 135 % of control, the survivor count (dose: 200.0 mg/kg/injection, schedule: Q01DX009 (ip), vehicle: olive oil, sesame oil, peanut oil) was 1 of 6 and the survivor count (dose: 200.0 mg/kg/injection, schedule: Q01DX009 (ip), vehicle: suspension in saline) was 3 of 6.

For `COc1ccc(OC)c2c1C(=O)C=CC2=O`, the survivor count (dose: 12.5 mg/kg/injection, schedule: Q01DX001 (ip), vehicle: saline) was 3 of 5, the survivor count (dose: 25.0 mg/kg/injection, schedule: Q01DX001 (ip), vehicle: saline) was 1 of 5 and the survivor count (dose: 50.0 mg/kg/injection, schedule: Q01DX001 (ip), vehicle: saline) was 0 of 5. The survivor count (dose: 100.0 mg/kg/injection, schedule: Q01DX001 (ip), vehicle: saline) was 0 of 6, the survivor count (dose: 200.0 mg/kg/injection, schedule: Q01DX001 (ip), vehicle: saline) was 0 of 6 and the survivor count (dose: 400.0 mg/kg/injection, schedule: Q01DX001 (ip), vehicle: saline) was 0 of 6.

With `COc1ccc(C2C(C(=O)NCc3ccccc3)=C(C)NC(C)=C2C(=O)NCc2ccccc2)cc1OC` the survivor count (dose: 120.0 mg/kg/injection, schedule: Q01DX005 (ip), vehicle: Klucel (hydroxypropylcellulose) (HPC)) was 6 of 6 and the survivor count (dose: 240.0 mg/kg/injection, schedule: Q01DX005 (ip), vehicle: Klucel (hydroxypropylcellulose) (HPC)) was 6 of 6.

In the case of `C(=Nc1cccnc1)c1ccc(C=Nc2cccnc2)cc1`, the survivor count [1] is reported as 5 of 6.

`CN(C)C1=C(Cl)C(=O)c2[nH]cnc2C1=O` was tested, and the survivor count (dose: 50.0 mg/kg/injection, schedule: Q01DX005 (ip), vehicle: Klucel (hydroxypropylcellulose) (HPC)) was 5 of 5, the survivor count (dose: 100.0 mg/kg/injection, schedule: Q01DX005 (ip), vehicle: Klucel (hydroxypropylcellulose) (HPC)) was 0 of 6 and the survivor count (dose: 200.0 mg/kg/injection, schedule: Q01DX005 (ip), vehicle: Klucel (hydroxypropylcellulose) (HPC)) was 0 of 6.

For `N#C[C@H]1O[C@H]1c1ccc[n+]([O-])c1`, the survivor count (dose: 100.0 mg/kg/injection, schedule: Q01DX005 (ip), vehicle: saline) was 0 of 6 and the survivor count (dose: 200.0 mg/kg/injection, schedule: Q01DX005 (ip), vehicle: saline) was 0 of 6.
